The target of assay [1] is Flag-FAF1 wt (UniProt Q9UNN5). Description: affinity purification with mass spectrometry; anti-Flag-FAF1 immunoprecipitants; cell line not stated.
The target in assay [2] is FLAG-tagged TGF-β type II serine/threonine kinase receptor (TβRII-Flag) (UniProt P37173). Description: affinity purification with mass spectrometry; TβRII-Flag immunoprecipitants from cells without (sample A) and with (sample B) NH4Cl (25 mM); cell line not stated.

Amino acid sequences for entries named in this document (tags omitted). Residues count along the entry.
UniProt Q9UNN5: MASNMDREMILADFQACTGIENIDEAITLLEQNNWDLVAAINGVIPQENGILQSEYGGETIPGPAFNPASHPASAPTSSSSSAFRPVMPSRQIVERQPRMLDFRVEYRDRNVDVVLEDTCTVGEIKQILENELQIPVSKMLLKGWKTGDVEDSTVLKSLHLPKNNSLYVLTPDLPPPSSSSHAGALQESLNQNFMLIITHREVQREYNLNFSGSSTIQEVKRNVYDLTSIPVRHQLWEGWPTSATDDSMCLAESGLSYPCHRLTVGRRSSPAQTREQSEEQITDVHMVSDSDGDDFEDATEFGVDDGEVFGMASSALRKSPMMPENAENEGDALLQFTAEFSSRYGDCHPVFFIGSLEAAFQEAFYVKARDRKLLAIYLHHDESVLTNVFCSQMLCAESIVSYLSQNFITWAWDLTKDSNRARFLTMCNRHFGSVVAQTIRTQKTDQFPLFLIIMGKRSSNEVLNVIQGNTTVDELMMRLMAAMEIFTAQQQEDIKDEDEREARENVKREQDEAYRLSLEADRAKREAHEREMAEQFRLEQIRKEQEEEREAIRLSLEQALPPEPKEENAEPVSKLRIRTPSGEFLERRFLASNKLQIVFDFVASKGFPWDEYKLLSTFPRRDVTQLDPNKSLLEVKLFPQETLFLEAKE
UniProt P37173, residues 23-567: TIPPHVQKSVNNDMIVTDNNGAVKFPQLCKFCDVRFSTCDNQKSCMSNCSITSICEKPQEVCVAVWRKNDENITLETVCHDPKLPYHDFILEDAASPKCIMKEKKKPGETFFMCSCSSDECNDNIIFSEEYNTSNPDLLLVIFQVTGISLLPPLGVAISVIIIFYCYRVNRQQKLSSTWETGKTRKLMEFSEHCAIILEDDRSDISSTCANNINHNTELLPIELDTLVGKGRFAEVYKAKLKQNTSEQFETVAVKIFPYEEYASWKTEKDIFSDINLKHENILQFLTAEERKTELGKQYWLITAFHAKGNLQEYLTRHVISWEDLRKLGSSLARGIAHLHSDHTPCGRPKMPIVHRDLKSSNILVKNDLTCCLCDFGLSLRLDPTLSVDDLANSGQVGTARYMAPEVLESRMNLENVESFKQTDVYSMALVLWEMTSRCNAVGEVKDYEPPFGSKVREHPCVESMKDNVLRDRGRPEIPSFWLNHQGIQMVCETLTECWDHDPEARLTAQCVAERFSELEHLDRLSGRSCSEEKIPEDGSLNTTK
UniProt O95292: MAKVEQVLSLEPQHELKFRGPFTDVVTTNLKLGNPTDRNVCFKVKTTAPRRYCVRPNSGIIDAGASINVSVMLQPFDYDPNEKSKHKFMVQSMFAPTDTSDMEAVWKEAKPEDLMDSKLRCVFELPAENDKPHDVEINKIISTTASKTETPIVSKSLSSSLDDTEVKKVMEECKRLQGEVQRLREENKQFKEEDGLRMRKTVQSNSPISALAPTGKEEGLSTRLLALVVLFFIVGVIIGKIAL

Results are given in words; binding and its absence hold for the method and conditions named. In cells and extracts the contact can be indirect. A yes stands for co-enrichment or nearness to the bait. Other partners may have been found.

For VAPB (from UniProt O95292 1-243), the binding result in assay [1] was “binds”. As for “FAS-associated factor 1 (FAF1), endogenous (from UniProt Q9UNN5 1-650)”, the binding entry in assay [2] was “binds”.

The record behind these values is publication PMC5414047.
